Reference: patent US20060281736A1, “Product comprising at least one phosphatase cdc25 inhibitor combined with at least one other anticancer agent” (priority 2003, published 2006)
Some entries share one result that the patent states for a list of compounds.

Tests used:
[1] = test system: Mia-PaCa2 (human pancreas cancer cells); assay: Antiproliferative activity on Mia-Paca2 cells (WST1); type: cell-based; details: 96 hours treatment; read-out: IC50 on the cell proliferation of Mia-Paca2 lines
Protocol: ii) Characterization of the Antiproliferative Activity:
By way of example, the effect of a treatment on two human cell lines Mia-Paca2 and DU145 with the compounds of the examples described previously will be studied. The cell lines DU145 (human prostate cancer cells) and Mia-PaCa2 (human pancreas cancer cells) were acquired from the American Tissue Culture Collection (Rockville, Md., USA). The cells placed in 80 μl of Dulbecco's Modified Eagle's medium (Gibco-Brl, Cergy-Pontoise, France) completed with 10% foetal calf serum inactivated by heating (Gibco-Brl, Cergy-Pontoise, France), 50,000 units/l of penicillin and 50 mg/l of streptomycin (Gibco-Brl, Cergy-Pontoise, France), and 2 mM of glutamine (Gibco-Brl, Cergy-Pontoise, France) were seeded on a 96-well plate on day 0. The cells were treated on day 1 for 96 hours with increasing concentrations of each of the compounds to be tested up to 10 μM. At the end of this period, quantification of cell proliferation is evaluated by a colorimetric test based on the cleavage of the tetrazolium salt WST1 by the mitochondrial dehydrogenases in viable cells leading to the formation of formazan (Boehringer Mannheim, Meylan, France). These tests are carried out in duplicate with 8 determinations per concentration tested. For each compound to be tested, the values included in the linear part of the sigmoid were retained for a linear regression analysis and used to estimate the inhibitory concentration IC50. The products are solubilized in dimethylsulphoxide (DMSO) at 10^−2 M and finally used in culture with 0.1% DMSO.

MBP-Cdc25C protein = target: T1, MBP-Cdc25C protein (Homo sapiens, UniProt P30307); assay: Phosphatase activity of the purified Cdc25C recombinant enzyme (OMFP dephosphorylation); type: biochemical; details: OMFP 500 μM, 4 hours at 30° C.; read-out: IC50 on the phosphatase activity of the purified Cdc25-C recombinant enzyme
T1 construct: made in house
T1 sequence (P30307 1-473): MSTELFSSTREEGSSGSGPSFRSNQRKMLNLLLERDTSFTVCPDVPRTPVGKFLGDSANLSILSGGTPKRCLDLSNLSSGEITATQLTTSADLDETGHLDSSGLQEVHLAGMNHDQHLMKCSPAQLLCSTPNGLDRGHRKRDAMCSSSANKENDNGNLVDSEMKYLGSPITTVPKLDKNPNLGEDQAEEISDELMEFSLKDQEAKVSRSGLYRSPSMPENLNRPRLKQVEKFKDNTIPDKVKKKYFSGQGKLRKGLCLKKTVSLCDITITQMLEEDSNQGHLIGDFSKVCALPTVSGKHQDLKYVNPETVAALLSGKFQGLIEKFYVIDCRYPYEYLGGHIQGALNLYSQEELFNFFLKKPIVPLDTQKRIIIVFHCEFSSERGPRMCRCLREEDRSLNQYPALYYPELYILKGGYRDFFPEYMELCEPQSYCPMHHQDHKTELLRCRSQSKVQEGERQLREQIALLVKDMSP

Substance	IC50 [1] [µM]	IC50 (MBP-Cdc25C protein) [µM]
Mixture of 2-(2-fluorophenyl)-5-{[2-(dimethylamino)ethyl]amino}-1,3-benzoxazole-4,7-dione and 2-(2-fluorophenyl)-6-{[2-(dimethylamino)ethyl]amino}-1,3-benzoxazole-4,7-dione [Example 66]	≤ 10	≤ 10
Mixture of 2-(4-bromophenyl)-5-{[2-(dimethylamino)ethyl]amino}-1,3-benzoxazole-4,7-dione and 2-(4-bromophenyl)-6-{[2-(dimethylamino)ethyl]amino}-1,3-benzoxazole-4,7-dione [Example 75]	≤ 10	≤ 10
Mixture of 2-[2-chloro-5-(trifluoromethyl)phenyl]-5-{[3-(dimethylamino)propyl]amino}-1,3-benzoxazole-4,7-dione and 2-[2-chloro-5-(trifluoromethyl)phenyl]-6-{[3-(dimethylamino)propyl]amino}-1,3-benzoxazole-4,7-dione [Example 96]	≤ 10	≤ 10
Mixture of 2-(2,3-difluorophenyl)-5-{[2-(dimethylamino)ethyl]amino}-1,3-benzoxazole-4,7-dione and 2-(2,3-difluorophenyl)-6-{[2-(dimethylamino)ethyl]amino}-1,3-benzoxazole-4,7-dione [Example 84]	≤ 10	≤ 10
Mixture of 5-[(2-pyrrolidin-1-ylethyl)amino]-2-(2,3,4,5-tetrafluorophenyl)-1,3-benzoxazole-4,7-dione and 6-[(2-pyrrolidin-1-ylethyl)amino]-2-(2,3,4,5-tetrafluorophenyl)-1,3-benzoxazole-4,7-dione [Example 89]	≤ 10	≤ 10
Mixture of 2-(3-bromophenyl)-5-{[2-(dimethylamino)ethyl]amino}-1,3-benzoxazole-4,7-dione and 2-(3-bromophenyl)-6-{[2-(dimethylamino)ethyl]amino}-1,3-benzoxazole-4,7-dione [Example 73]	≤ 10	≤ 10
Mixture of 5-{[2-(dimethylamino)ethyl]amino}-2-(4-fluorophenyl)-1,3-benzothiazole-4,7-dione and 6-{[2-(dimethylamino)ethyl]amino}-2-(4-fluorophenyl)-1,3-benzothiazole-4,7-dione [Example 111]	≤ 10	≤ 10
5-[[2-(dimethylamino)ethyl](methyl)amino]-2-methyl-1,3-benzothiazole-4,7-dione [Example 115]	≤ 10	≤ 10
Mixture of 2-(2-bromophenyl)-5-{[3-(dimethylamino)propyl]amino}-1,3-benzoxazole-4,7-dione and 2-(2-bromophenyl)-6-{[3-(dimethylamino)propyl]amino)-1,3-benzoxazole-4,7-dione [Example 70]	≤ 10	≤ 10
Mixture of 2-ethyl-5-(4-methylpiperazin-1-yl)-1,3-benzoxazole-4,7-dione and 2-ethyl-6-(4-methylpiperazin-1-yl)-1,3-benzoxazole-4,7-dione [Example 49]	≤ 10	≤ 10
Mixture of 2-(2,6-difluorophenyl)-5-[(2-pyrrolidin-1-ylethyl)amino]-1,3-benzoxazole-4,7-dione and 2-(2,6-difluorophenyl)-6-[(2-pyrrolidin-1-ylethyl)amino]-1,3-benzoxazole-4,7-dione [Example 60]	≤ 10	≤ 10
Mixture of 2-[2-fluoro-6-(trifluoromethyl)phenyl]-5-[(2-pyrrolidin-1-ylethyl)amino]-1,3-benzoxazole-4,7-dione and 2-[2-fluoro-6-(trifluoromethyl)phenyl]-6-[(2-pyrrolidin-1-ylethyl)amino]-1,3-benzoxazole-4,7-dione [Example 92]	≤ 10	≤ 10
2-ethyl-5-[(4-fluorophenyl)amino]-1,3-benzoxazole-4,7-dione or 2-ethyl-6-[(4-fluorophenyl)amino]-1,3-benzoxazole-4,7-dione [Example 17]	≤ 10	≤ 10
Mixture of 5-{[2-(dimethylamino)ethyl]amino}-2-(4-fluorophenyl)-1,3-benzoxazole-4,7-dione and 6-{[2-(dimethylamino)ethyl]amino}-2-(4-fluorophenyl)-1,3-benzoxazole-4,7-dione [Example 77]	≤ 10	≤ 10
tert-butyl 2-[(2-ethyl-4,7-dioxo-4,7-dihydro-1,3-benzoxazol-5-yl)amino]ethylcarbamate or tert-butyl 2-[(2-ethyl-4,7-dioxo-4,7-dihydro-1,3-benzoxazol-6-yl)amino]ethylcarbamate [Example 42]	≤ 10	≤ 10
Mixture of 5-{[2-(dimethylamino)ethyl]amino}-2-{(2-methoxyphenyl)-1,3-benzothiazole-4,7-dione and 6-[{2-(dimethylamino)ethyl]amino}-2-(2-methoxyphenyl)-1,3-benzothiazole-4,7-dione [Example 107]	≤ 10	≤ 10
Mixture of 2-(2,6-difluorophenyl)-5-[(2-pyrrolidin-1-ylethyl)amino]-1,3-benzothiazole-4,7-dione and 2-(2,6-difluorophenyl)-6-[(2-pyrrolidin-1-ylethyl)amino]-1,3-benzothiazole-4,7-dione [Example 112]	≤ 10	≤ 10
Mixture of 2-ethyl-5-morpholin-4-yl-1,3-benzoxazole-4,7-dione and 2-ethyl-6-morpholin-4-yl-1,3-benzoxazole-4,7-dione [Example 52]	≤ 10	≤ 10
Mixture of 2-(3,5-difluorophenyl)-5-{[2-(dimethylamino)ethyl]amino}-1,3-benzoxazole-4,7-dione and 2-(3,5-difluorophenyl)-6-{[2-(dimethylamino)ethyl]amino}-1,3-benzoxazole-4,7-dione [Example 81]	≤ 10	≤ 10
Mixture of 2-ethyl-5-[(1-ethylhexyl)amino]-1,3-benzoxazole-4,7-dione and 2-ethyl-6-[(1-ethylhexyl)amino]-1,3-benzoxazole-4,7-dione [Example 50]	≤ 10	≤ 10
